Measured data: PubChem BioAssay AID1259264 (Sanger Institute, 2017)

- Screen: 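Kinase-wide knock-down to find genes that strengthen targeted drug effects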 (primary screen)
- Cells: CL40 human colorectal cancer cells
- Reagents: siRNA pool against human genes
- Challenge: DMSO, or an anchor drug: BYL719 at 1 µM, cetuximab at 5 µg/ml, or trametinib at 10 nM
- Read-out: 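Replicate-mean viability versus a non-targeting pool, robust z-score from control wells, and mean synergy with BYL719 1 µM, cetuximab 5 µg/ml or trametinib 10 nM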
- Reading the numbers: robust z-score, siRNA alone and viability, siRNA alone: higher = more viable cells; synergy score with BYL719: higher = stronger combined killing with BYL719; synergy score with cetuximab: higher = stronger combined killing with cetuximab; synergy score with trametinib: higher = stronger combined killing with trametinib
- Active means: 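Essential call: siRNA with no drug reaches a robust z under -3 (low cell count); drug synergy scores do not affect it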
- Calls: active = essential (lowers viability alone); inactive = not essential
The whole screen tested 794 reagents; below is a random part of them. 15 of them (1.9%) were called active. 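Calls rest on knock-down alone at z-score below -3; synergy scores with the three drugs do not decide them.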 No viability above 1 is reported: the scale is capped. Not stated in the record: the amount of reagent, the time to read-out.

gene symbol,"robust z-score, siRNA alone","viability, siRNA alone (fraction of control)",synergy score with BYL719,synergy score with cetuximab,synergy score with trametinib,Call
TSSK4,0.539,1,-0.156,-0.0174,0.124,inactive
AURKB,0.27,0.981,0.0162,0.131,0.133,inactive
TNK1,0.539,1,-0.0686,-0.0174,-0.0267,inactive
SIK2,-0.282,0.941,-0.0172,-0.0399,-0.0359,inactive
MPP3,-0.252,0.943,-0.122,-0.0731,0.211,inactive
WIPF1,-0.128,0.952,0.0165,-0.0644,0.0771,inactive
STK36,0.539,1,-0.156,0.0146,0.153,inactive
STK3,0.539,1,-0.0921,-0.0174,0.044,inactive
MAP3K2,0.538,1,-0.156,-0.0175,-0.101,inactive
CAD,0.539,1,-0.156,0.0325,-0.127,inactive
PKDCC,-0.545,0.922,-0.0708,-0.0684,0.0201,inactive
AGK,-0.338,0.937,-0.121,-0.0792,0.129,inactive
CASK,0.539,1,-0.0551,-0.0174,0.14,inactive
PDGFRA,0.539,1,0.00621,-0.0174,0.0921,inactive
TNIK,0.499,0.997,-0.0187,0.0234,0.0527,inactive
PGK1,0.539,1,-0.127,0.00589,0.129,inactive
MAPKAPK2,0.286,0.982,-0.00456,-0.0352,0.031,inactive
CDK11A,-2.91,0.753,-0.108,-0.0432,-0.0472,inactive
PRKD1,0.539,1,-0.0512,-0.0174,0.037,inactive
CALM3,0.209,0.976,-0.0672,-0.0407,-0.00932,inactive
MAP3K13,0.467,0.995,-0.0337,-0.000295,0.0159,inactive
MPP1,0.521,0.999,-0.0804,0.0585,0.027,inactive
KCNH8,-0.383,0.934,-0.132,-0.0824,0.053,inactive
GUK1,-2.07,0.813,-0.0661,0.00955,-0.0396,inactive
MAST2,0.539,1,-0.0587,0.077,0.0508,inactive
BMAL1,-0.0891,0.955,-0.0022,-0.00562,0.0234,inactive
BMPR2,0.453,0.994,-0.0957,-0.0235,0.102,inactive
EPHB1,-0.165,0.95,-0.099,-0.00957,0.0676,inactive
ELF3,-1.26,0.871,-0.00511,-0.043,0.124,inactive
MAPK15,0.275,0.981,0.0158,-0.036,0.0685,inactive
CRKL,0.539,1,-0.1,-0.0174,0.0536,inactive
MAP3K20,0.239,0.978,-0.123,0.0352,0.0418,inactive
SF3B1,-7.67,0.411,-0.0574,-0.0598,-0.0735,active
CPNE3,0.539,1,-0.0555,-0.0174,0.0767,inactive

The list goes on, starting with the last 6 of the part before.
gene symbol,"robust z-score, siRNA alone","viability, siRNA alone (fraction of control)",synergy score with BYL719,synergy score with cetuximab,synergy score with trametinib,Call
ELF3,-1.26,0.871,-0.00511,-0.043,0.124,inactive
MAPK15,0.275,0.981,0.0158,-0.036,0.0685,inactive
CRKL,0.539,1,-0.1,-0.0174,0.0536,inactive
MAP3K20,0.239,0.978,-0.123,0.0352,0.0418,inactive
SF3B1,-7.67,0.411,-0.0574,-0.0598,-0.0735,active
CPNE3,0.539,1,-0.0555,-0.0174,0.0767,inactive
ACVR2B,0.0174,0.963,-0.0581,0.0415,0.0766,inactive
NPR2,0.225,0.977,-0.175,-0.0396,0.0199,inactive
DGKI,0.539,1,-0.156,-0.0174,0.0337,inactive
AXIN2,0.41,0.991,-0.00874,-0.0265,0.0958,inactive
PANK2,0.539,1,-0.11,-0.0174,0.114,inactive
MAP3K3,-0.438,0.93,-0.0236,-0.0361,0.112,inactive
IRAK2,0.197,0.975,-0.144,-0.0157,0.0934,inactive
NIM1K,0.539,1,-0.0417,0.0175,0.0788,inactive
CREBBP,0.539,1,-0.083,-0.0174,0.0627,inactive
SIK1,-0.0558,0.957,-0.127,0.00829,0.0724,inactive
TJP2,-0.766,0.906,-0.0924,-0.0449,0.0882,inactive
MYH10,0.389,0.989,-0.131,-0.019,0.0918,inactive
RAD21,0.539,1,0.0181,0.0481,0.0991,inactive
SPEG,0.539,1,-0.0801,-0.00994,0.0338,inactive
BMP2K,0.539,1,-0.156,-0.0174,0.147,inactive
FOXP1,0.0332,0.964,0.0371,0.0559,0.184,inactive
CDK11B,-1.44,0.858,-0.167,-0.156,-0.0959,inactive
PCK2,0.539,1,-0.00411,-0.00307,0.0879,inactive
RIOK1,-1.58,0.848,-0.116,0.024,0.0472,inactive
NRBP2,-0.772,0.906,-0.0852,-0.0408,0.00158,inactive
CDC42BPG,0.539,1,-0.117,-0.0174,0.114,inactive
CAMK2N1,-2.11,0.81,-0.118,-0.089,-0.00734,inactive
PRKAG1,-0.112,0.953,-0.0255,-0.042,0.115,inactive
MYLK3,0.485,0.996,-0.159,-0.0212,0.0767,inactive
SMG1,-0.839,0.901,-0.155,-0.114,-0.00161,inactive
TTBK2,-1.55,0.851,-0.201,-0.145,0.0179,inactive
CDK20,-0.147,0.951,-0.148,-0.0657,0.138,inactive
PIM1,0.0953,0.968,-0.0262,0.0475,0.109,inactive
TAB1,0.015,0.962,-0.0948,0.0715,0.0775,inactive
